From PubChem BioAssay AID588499 (NMMLSC, 2011)
Among all 360,000 compounds or so, about 610 (0.17%) were called active. Inconclusive results, whose numbers are uncertain, are shown with a selection of clear calls. Rule as the data show it: active = inhibition above about 30%; inconclusive = no clear call, values can overlap the other calls; inactive = below that.

tested on: Botulinum neurotoxin type A light chain protease (Clostridium botulinum A str. ATCC 3502); assay: blockers of BoNT/A LC substrate cleavage – biochemical, flow cytometry, MLPCN library, primary screen (AID 588499); conditions: multiplex microsphere protease substrate cleavage, at 10 µM, stronger effect = higher value; also: plate controls were buffer without enzyme for full effect and enzyme alone for no effect

Row | Structure (SMILES) | inhibition
1 | COc1cc(Cl)c(C)cc1NC(=O)c1ccc2c(SCC(=O)O)c3c(nc2c1)CCCC3 | inactive: -0.3%
2 | Cn1c(O)c(/C=N/N2CCOCC2)c(=O)n(C)c1=S | inconclusive: -19.2%
3 | O=C(CC1OC(=O)c2ccccc21)Nc1cc(Cl)ccc1N1CCCC1 (stereo not given) | inconclusive: -4.8%
4 | CCCN1CCCc2ccccc21 | inconclusive: 24.8%
5 | CCOc1ccc(C(=O)n2cc(C(=O)OC)c3ccccc32)cc1OCC | inconclusive: -0.9%
6 | COc1nc(N)c(S(=O)(=O)c2ccccc2)cc1C#N | inconclusive: 1.5%
7 | CCCSc1nc(O)c(CC)c(=O)n1C(C)CC (stereo not given) | inconclusive: 13.2%
8 | CC(NC(=O)c1cc2c(cc1Cl)N1CCCCCC1=NS2(=O)=O)c1ccc(S(N)(=O)=O)cc1 (stereo not given) | inconclusive: -23.3%
9 | O=C1CC(N2CCN(c3ccccc3)CC2)C(=O)N1c1cccc(Cl)c1 (stereo not given) | inactive: -2.6%
10 | Cc1cccc2cc(C(c3nnnn3Cc3ccccc3)N3CCCc4ccccc43)c(=O)[nH]c12 (stereo not given) | inconclusive: 2.4%
11 | COc1ccc(N2CCN(C(=O)COC(=O)CNC(=O)c3ccc(C)cc3)CC2)cc1 | inconclusive: 0.9%
12 | CC(C)Oc1cccc(C(=O)C2CCCN(C(=O)c3ccccn3)C2)c1 (stereo not given) | inactive: -0.1%
13 | CCOC(=O)c1c(C)c(C(=O)NC(C)COC)c(C)n1C (stereo not given) | inconclusive: -4.3%
14 | CCN(CC)c1ccc(/C=C/c2cc(-c3ccccc3)c3ccccc3n2)cc1 | inconclusive: 21.3%
15 | COC(=O)c1sc(C(F)(F)F)c(-c2ccccc2)c1S(=O)(=O)NC(C)(C)C | inconclusive: -14.5%
16 | CCN(CC)CCn1c2c(c(SCC(=O)Nc3cccc4ccccc34)nc1=O)CCC2 | inactive: -0.6%
17 | CC(C)N(CCCNC(=O)C1CCN(C(=O)c2cc3sccc3n2C)CC1)Cc1ccccc1 | inactive: 0.8%
18 | Cc1ccc(C)c(N2CCN(C(=O)c3cc4sccc4n3C)CC2)c1 | inconclusive: -7.1%
19 | Cc1[nH]n(C(N)=S)c(=O)c1N=Nc1ccc(S(=O)(=O)N2CCCCCC2)cc1 | inconclusive: -8.1%
20 | CCN(CC)c1ccc(O)c(C=Nc2ccc(C)c(C)c2)c1 | active: 50.4%
21 | C=CCn1c(C)cc(C(=O)CSc2nc3ccccc3[nH]2)c1C | inconclusive: 2.6%
22 | Cc1ccc2[nH]c(=O)c(CN(CCCN3CCOCC3)C(=O)NC3CCCCC3)cc2c1 | inconclusive: -1.4%
23 | CC1CN(Cc2ccccc2)c2nc3c(c(=O)n(C)c(=O)n3C)n2C1 (stereo not given) | inconclusive: 0.7%

Row | Structure (SMILES) | inhibition
24 | CC(=O)Nc1ccc(S(=O)(=O)Nc2nc3ccccc3nc2Nc2ccc(N)cc2)cc1 | inactive: 0.4%
25 | CCN(CC)CCCn1c2c(c(SCC(=O)Nc3ccccc3Cl)nc1=O)CCC2 | inconclusive: 2.1%
26 | COc1ccc(-n2c(=O)c3c4c(sc3n3c(=S)[nH]nc23)CCC4)cc1 | inconclusive: 6.5%
27 | CSc1ccc(CNC(=O)c2c(C)noc2C)s1 | inconclusive: -17%
28 | O=C(CCNC(=O)C1CCN(S(=O)(=O)c2ccc(F)cc2)CC1)NC1CC1 | inactive: 3.4%
29 | CCOCCCNC(=O)c1ccc2c(c1)ncn2-c1ccc(CC)cc1 | inactive: -1.8%
30 | O=C(c1cccs1)N(Cc1cccc(Cl)c1)C1CCS(=O)(=O)C1 (stereo not given) | inconclusive: -4.2%
31 | O=C(COc1ccc2ccccc2c1)NCC(=O)N/N=C/c1ccco1 | inconclusive: 2.3%
32 | O=C(Cn1nc(C(F)F)cc1C(F)F)N/N=C/c1ccc2c(c1)OCO2 | inconclusive: 1.6%
33 | CCOc1cc2[nH]c(=S)n(Cc3ccc(C)o3)c(=O)c2cc1OCC | inconclusive: -5.1%
34 | CSCC[C@H](NC(=O)OC(C)(C)C)C(=O)N1CCC(C(=O)N[C@@H](C)C(=O)O)CC1 | inconclusive: 1.4%
35 | O=C(Cc1c(F)cccc1Cl)OCC(=O)N1CCN(c2ccccc2)CC1 | inactive: -0.2%
36 | O=CN(Cc1nc2ccccc2[nH]1)c1ccc(C(=O)O)cc1 | inactive: 0.3%
37 | CCc1ccc(NC(=O)C(=O)c2ccccc2NC(C)=O)cc1 | inconclusive: 6.4%
38 | Cc1cc(C(F)(F)F)n2nc(-c3cccs3)cc2n1 | inconclusive: -34.7%
39 | Cc1ccccc1NC(=O)Cn1nnc(-c2ccc(N3CCOCC3)cc2)n1 | inconclusive: -0.8%
40 | CC(C)Sc1n[nH]c(=O)n1-c1cccc(C(F)(F)F)c1 | inconclusive: -6.2%
41 | CCCOc1ccc(C(=O)CCNc2ccc(C)c(Cl)c2)cc1 | inactive: -0.3%
42 | CSCCC(NC(=O)c1cccc(C)c1)C(=O)Nc1sccc1C(N)=O (stereo not given) | inactive: -4%
43 | CC(CCN1CCN(CCO)CC1)c1ccccc1 (stereo not given) | inconclusive: -0.7%
44 | O=C(O)c1ccc(C2Nc3ccccc3C(=O)N2Cc2ccccc2)cc1 (stereo not given) | inactive: 0.3%
45 | CCN(CC)S(=O)(=O)c1ccc(C(=O)/C=C/c2ccc(-c3ccc([N+](=O)[O-])cc3)o2)cc1 | active: 79.3%

Look-ups from the entries so far.
Value of `CCOCCCNC(=O)c1ccc2c(c1)ncn2-c1ccc(CC)cc1` under inhibition: inactive: -1.8%
Value of `O=C(Cc1c(F)cccc1Cl)OCC(=O)N1CCN(c2ccccc2)CC1` under inhibition: inactive: -0.2%
